No constants are given. Whether binding was seen depends on the method and setting. For some assays here: Binding seen in cells or lysates may run through a third protein. Some results given as binding are weak or reduced against the parent protein; the word gives no strength. Blank lines part the entries; values can stand above or below the binder they belong to.
Columns and labels:
non-tagged Hfq (E. coli) = non-tagged Hfq (E. coli) (UniProt P0A6X3); assay: MST; non-tagged Hfq with PAP; data not shown; both purified
[1] = target: HfqH6 (His6-tagged Hfq expressed from pHfqH6) (E. coli) (UniProt P0A6X3); assay: cross-linking; in vivo, 0.25 mM DSP in PBS, 1 h at 37 °C, late exponential phase; HfqH6 complexes enriched on Ni-Agarose; with or without 50 mM DTT; SDS-PAGE, 24 gel slices analysed by mass spectrometry; no RNase A treatment

Protein sequences, listed by entry. Tags and fused reporters are not part of them.
UniProt P0A6X3: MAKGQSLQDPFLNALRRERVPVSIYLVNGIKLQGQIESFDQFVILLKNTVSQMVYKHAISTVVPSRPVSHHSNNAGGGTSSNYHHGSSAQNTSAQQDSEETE

- binding (non-tagged Hfq (E. coli)): binds
B1: Poly(A)polymerase, PAP (purified) (protein, UniProt P0ABF1 11-465)
chain: KVLSREESEAEQAVARPQVTVIPREQHAISRKDISENALKVMYRLNKAGYEAWLVGGGVRDLLLGKKPKDFDVTTNATPEQVRKLFRNCRLVGRRFRLAHVMFGPEIIEVATFRGHHEGNVSDRTTSQRGQNGMLLRDNIFGSIEEDAQRRDFTINSLYYSVADFTVRDYVGGMKDLKDGVIRLIGNPETRYREDPVRMLRAVRFAAKLGMRISPETAEPIPRLATLLNDIPPARLFEESLKLLQAGYGYETYKLLCEYHLFQPLFPTITRYFTENGDSPMERIIEQVLKNTDTRIHNDMRVNPAFLFAAMFWYPLLETAQKIAQESGLTYHDAFALAMNDVLDEACRSLAIPKRLTTLTRDIWQLQLRMSRRQGKRAWKLLEHPKFRAAYDLLALRAEVERNAELQRLVKWWGEFQVSAPPDQKGMLNELDEEPSPRRRTRRPRKRAPRREGTA

- binding [1]: no binding
B2: GlmS (protein, UniProt P17169 1-609)
chain: MCGIVGAIAQRDVAEILLEGLRRLEYRGYDSAGLAVVDAEGHMTRLRRLGKVQMLAQAAEEHPLHGGTGIAHTRWATHGEPSEVNAHPHVSEHIVVVHNGIIENHEPLREELKARGYTFVSETDTEVIAHLVNWELKQGGTLREAVLRAIPQLRGAYGTVIMDSRHPDTLLAARSGSPLVIGLGMGENFIASDQLALLPVTRRFIFLEEGDIAEITRRSVNIFDKTGAEVKRQDIESNLQYDAGDKGIYRHYMQKEIYEQPNAIKNTLTGRISHGQVDLSELGPNADELLSKVEHIQILACGTSYNSGMVSRYWFESLAGIPCDVEIASEFRYRKSAVRRNSLMITLSQSGETADTLAGLRLSKELGYLGSLAICNVPGSSLVRESDLALMTNAGTEIGVASTKAFTTQLTVLLMLVAKLSRLKGLDASIEHDIVHGLQALPSRIEQMLSQDKRIEALAEDFSDKHHALFLGRGDQYPIALEGALKLKEISYIHAEAYAAGELKHGPLALIDADMPVIVVAPNNELLEKLKSNIEEVRARGGQLYVFADQDAGFVSSDNMHIIEMPHVEEVIAPIFYTVPLQLLAYHVALIKGTDVDQPRNLAKSVTVE

From paper PMC6773851
